Reference: patent publication US20180141987A1, “Novel Synthetic Antimicrobial Peptides” (priority 2014, published 2018)
At least one peptide structure holds a part that was inferred or is arguable (an end, a ring closure or a residue). No end group written: not given here.

Test system: Candida albicans cells
Test: ROS generation (DCFH-DA fluorescence)
Type: cell-based
Conditions: peptides at their respective MICs, FIG. 6
Experimental: FIG. 6 depicts the membrane damage and reactive oxygen species (ROS) generation by the instant peptides (a) Untreated Control, (b) positive control (c) […] (known peptide sequence, not novel, not to be covered in the invention, was used only for comparison), (d)Seq IDNo. 2, (e) Seq IDNo. 3 and (f) Seq IDNo. 1, after incubation of peptides at their respective MICs with the Candida albicans cells. i. Membrane Damage and ROS Generation • The membrane damage and formation of ROS (Reactive oxygen species) are the antifungal mechanisms of a number of antimicrobial peptides. The membrane damage (middle panel) and ROS generation by the instant peptides (right panel) was monitored after incubation of peptides at their respective MICs with the Candida albicans cells as depicted in FIG. 6(a-f). A red fluorescence resulting from the membrane impermeable DNA binding dye propidium iodide was observed indicating the membrane damage in the cells due to action of peptides under study. A green fluorescence resulting from the oxidation of dye Dichloro-dihydro-fluorescein diacetate DCFH-DA (non-fluorescent molecule) into DCF 2',7'-dichlorofluorescein. (fluorescent molecule) was observed indicating the presence of ROS.

FRLKFHLKF-NH2 [Seq Id No: 2] was tested, and the ROS generation was “higher”.
